# Results as given in paper PMC12040169 (PLOS Biology, 2025).
# The list shows a part of the results.
# Tested on: T1, CTL2-GFP (C. trachomatis L2/434/Bu, GFP-expressing)
# T1 construct: L2/434/Bu, GFP-expressing
# Design: species or system HeLa; Intracellular C. trachomatis growth in HeLa cells, bulk GFP fluorescence relative to DMSO
# Conditions: bulk GFP, single well; 28.5 h, 10 µM; inhibitor
row,SMILES,% of control remaining [%]
1,CCOc1cc(O)c(-c2nc(N)ncc2-c2ccc3c(c2)OCCO3)cc1CC [CBK288174],133.713
2,C[C@@H]1CNCCN1c1cc(C(F)(F)F)cc(OCc2ccccc2)n1 [CBK026755],115.951
3,CCNCCNc1ccc([N+](=O)[O-])cc1 [CBK264179C],137.604
4,Nc1cc(O)nc(SCC(=O)N2CCN(C(c3ccccc3)c3ccccc3)CC2)n1 [CBK268014],111.626
5,CN(C)CCN(C)c1ccc(-c2cc3ccccc3o2)cn1 [CBK036820],94.9804
6,O=C1CSC(c2cccc(Cl)c2Cl)N1C1CCCCC1 (centres unmarked) [CBK020678],72.4579
7,Cc1noc(C)c1NC(=O)c1cncnc1 [CBK200382],110.542
8,O=C(O)CCCC(=O)N1CCN2C(=O)c3cc(Br)ccc3NC(=O)[C@@H]2C1 [CBK289581],117.88
9,CN(CC(=O)Nc1ccccc1-c1ccccc1)S(=O)(=O)c1ccc2ccccc2c1 [CBK267432],117.604
10,OCc1ccccc1-c1cncc(NCc2cccs2)n1 [CBK065345],112.13
11,Cn1[nH]c(COC(C)(C)C)c(Cc2c(Cl)cccc2Cl)c1=O [CBK093521],118.16
12,O=C(Nc1ccc2oc(-c3cccnc3)nc2c1)c1cccc(OCc2ccccc2)c1 [CBK263420],129.952
13,Cc1ccc2c(c1)N(C(=O)COc1nc3ccccc3s1)C(C)(C)c1ssc(=S)c1-2 [CBK262696],96.082
14,O=C(O)Cc1cnnn1-c1ccc(Cl)cc1Cl [CBK288035],124.627
15,Cc1ccc(S(=O)(=O)OC[C@H]2O[C@@H](n3ccc(=O)[nH]c3=O)C[C@H]2O)cc1 [CBK201283],155.283
16,CC1(C)Cc2nc3sc(C(=O)O)c(NC(=O)c4ccccc4)c3cc2CO1 [CBK266166],140.024
17,Cc1nnc2sc(-c3ccc(NC(=O)CSc4ccc(Cl)cc4)cc3)nn12 [CBK266800],88.2035
18,CN1CCCN(c2nccnc2-c2ccccc2CO)CC1 [CBK038014],135.394
19,CCN1CCCC1CN(Cc1cccs1)Cc1cnc(C)n1C (centres unmarked) [CBK282603],114.894
20,CCn1cc(C2CN(S(=O)(=O)c3sc(C)nc3C)CCO2)cn1 (centres unmarked) [CBK305420],81.1275
21,CC(C)CCn1cc(C(=O)N2CCNCC2c2cccc(Cl)c2)nn1 (centres unmarked) [CBK304115],132.137
22,COC(=O)c1ccc(NC(=O)c2c(Br)c(Br)c(Br)c(Br)c2C(=O)O)cc1 [CBK261321],100
23,CCCc1[nH]nc(O)c1Cc1ccccc1-c1ccccc1 [CBK075034],117.877
24,COc1ccc2[nH]c(C(=O)N3CCn4nc(CO)cc4C3)c(C)c2c1 [CBK307302],118.158
25,S=C(Nc1ncn(Cc2ccc(Cl)c(Cl)c2)n1)Nc1ccc(Br)cc1Cl [CBK266940],142.25
26,Cc1ccc(NC(=O)c2cnc3ccccc3c2)c(C)n1 [CBK200290],144.604
27,COc1ccc([C@@]23CC/C(=N/NS(=O)(=O)c4ccc(C)cc4)C[C@@H]2N(Cc2ccccc2)CC3)cc1OC [CBK002717],100.175

row,SMILES,% of control remaining [%]
1,COC(=O)Nc1ncc(CN2CCCCC2)s1 [CBK268208],98.6362
2,COc1ncc(-c2cc(N3CCN(CCN(C)C)CC3)n3nccc3n2)c(OC)n1 [CBK037033],140.321
3,COc1ccc(NC(=S)NC(=N)N2CCN(Cc3ccccc3)CC2)cc1 [CBK267858],132.578
4,CC(=O)Nc1ccc(S(=O)(=O)Nc2ccccc2C(=O)O)cc1 [CBK042361],118.928
5,CCCC1C(C(N)=O)=C(C)NC(C)=C1C(N)=O [CBK019102],129.482
6,C=CCn1c(SCC(=O)Nc2cc(Cl)ccc2C)nnc1-c1ccccc1O [CBK266867],139.676
7,CCc1ccc(Oc2cc(N3CCC(C(=O)NC4CC4)CC3)ncn2)cc1 [CBK287854],113.017
8,CC(C)(C)NS(=O)(=O)c1ccc(OCC(=O)O)cc1 [CBK287077],105.795
9,CC(CCCC(C)(C)O)Nc1cncc(-c2cccc(Cl)c2)n1 (centres unmarked) [CBK037857],108.006
10,O=c1c2scc(-c3cccc(F)c3)c2ncn1Cc1ccc(F)cc1 [CBK287810],136.259
11,CCOC(=O)c1ccoc1CN1CCCC1c1ccsc1 (centres unmarked) [CBK304878],65.8871
12,CCCS(=O)(=O)N1CCN(CCN2C(=O)c3cccc4cccc(c34)C2=O)CC1 [CBK265559],125.728
13,COc1cc2c(cc1OC)C(C)N(Cc1cc(C)c(O)c(C)c1)CC2 (centres unmarked) [CBK074659C],123.148
14,COc1ccccc1CN(Cc1cccnc1)C(=O)CNC(C)=O [CBK306843],95.8109
15,Cc1ccc(NC(=O)c2cc(C(=O)Nc3ccc(C)c(C)c3)cc(N3C(=O)c4ccccc4C3=O)c2)cc1C [CBK261328],100
16,Cn1cc(CN2CCCC(c3cc4ccccc4cn3)C2)cn1 (centres unmarked) [CBK285042],113.046
17,O=c1/c(=C/c2ccc3c(c2)OCO3)sc2nc3cc(Br)cnc3n12 [CBK262550],109.427
18,CCOc1cccc(-c2cncc(NCc3cccs3)n2)c1 [CBK066034],102.206
19,O=c1[nH]c2ccccc2n1C1CCN(CCOC(c2ccc(F)cc2)c2ccc(F)cc2)CC1 [CBK099807G],119.21
20,Cc1nc2n(/N=C/c3ccc([N+](=O)[O-])cc3)c3ccccc3n2c1C#N [CBK263107],100
21,O=C(O)CCSc1nnnn1C1CCCCC1 [CBK263052],111.194
22,Cc1ccccc1OCC(O)Cn1c(=N)n(CCN2CCCCC2)c2ccccc21 (centres unmarked) [CBK266698C],140.469
23,CCc1ccc(S(=O)(=O)Nc2ccc(O)c(C(=O)O)c2)cc1 [CBK299827],140.77
24,CC(=O)N1C[C@H](c2ccsc2)[C@H]2CN(Cc3cccs3)CC[C@H]21 [CBK284586],75.9748
25,Oc1cccc(Sc2nccc(C(F)(F)F)n2)c1 [CBK093801],100
26,O=C(O)CCCC(=O)N(c1ccccc1)c1ccccc1 [CBK286901],131.356
27,FC(F)(F)C1CN(C2CCCCC2)C(=S)S1 (centres unmarked) [CBK009719],136.684

row,SMILES,% of control remaining [%]
1,O=C(NC[C@H]1C[C@@H]2CC[N@]1C[C@@H]2CN1CCN(c2ccccn2)CC1)c1ccco1 [CBK288867],114.813
2,Cc1cccc(C(N)=O)c1O [CBK012294],102.577
3,CC(C)C(=O)N1CCC(c2[nH]ncc2-c2ccncc2)CC1 [CBK284237],133.397
4,C#CCNC(=O)N1CCC(c2c[nH]c3ccccc23)CC1 [CBK305034],133.6
5,COc1c(O)ccc(/C=N/NC(=O)c2cccnc2)c1[N+](=O)[O-] [CBK262197],85.3552
6,Cc1cc(CN(C)C(=O)Cc2csc(NC(=O)c3ccoc3C)n2)no1 [CBK305779],95.7023
7,CCCN(C(=O)CCc1ccc(C)cc1C)C1CCNCC1 [CBK304302C],109.257
8,CC(C)NC(=O)CSc1nc2ccccc2[nH]1 [CBK072235],105.64
9,S=C(NCCc1c[nH]c2ccccc12)NCc1ccco1 [CBK267157],196.31
10,O=C(NCCC1SC(NC2CCCCCC2)=NC1=O)Nc1ccc(F)cc1F (centres unmarked) [CBK067469],120.518
11,O=C(Cn1cnc2ccccc21)N1CCC(c2ccccc2)C1 (centres unmarked) [CBK281845],129.589
12,Cc1cccc(Nc2nc(N)nc(CC(=O)CSc3ccc(Cl)cc3)n2)c1 [CBK265204],88.547
13,COc1c(Cl)ccc(Cl)c1C(=O)OCC(=O)O [CBK264596],91.0087
14,CCOCCCNC(=O)c1cnn2c(C)c(Cc3cccnc3)c(C)nc12 [CBK162152],146.112
15,Cc1nn(C)c(N2CCNCC2)c1NC(=O)/C=C/c1cccnc1 [CBK050354T],100
16,CCCNc1nc(-c2cc(OC)c(OC)c(OC)c2)cn2ccnc12 [CBK066363],145.565
17,FC(F)(F)c1ccnc(SCCc2ccccn2)c1 [CBK103709],112.963
18,O=C(Nc1cccnc1)c1c(O)n(Cc2ccccc2)c2ccccc2c1=O [CBK291206],90.4654
19,O=C(CN1CCCC2(CCN(C(=O)c3ccoc3)C2)C1)Nc1ncccn1 (centres unmarked) [CBK137140],116.473
20,Cc1nn(C)c(Cl)c1CN(CCC#N)Cc1ccco1 [CBK304825],127.043
21,CCn1c(SCC(=O)Nc2ccc([N+](=O)[O-])cc2)nnc1C(NC(=O)c1ccccc1)C(C)C (centres unmarked) [CBK107508],110.837
22,COc1ccc(NC(=O)C2CC3CCC2C3)cc1S(=O)(=O)Nc1ccc(Cl)cc1 (centres unmarked) [CBK297945],90.1225
23,CC(=O)Nc1cccc(CN(CCCCO)C2CC2)c1 [CBK304806],106.171
24,CCCc1n[nH]c(=S)n1CC(=O)NCc1ccc(OCCC(C)C)c(OC)c1 [CBK297743],162.42
25,COc1ccc([C@@]23CC[C@@H](NC(=O)Nc4ccc5ccccc5c4)C[C@@H]2N(C)CC3)cc1OC [CBK034181T],104.806
26,N#Cc1ccccc1Cn1ccc2c(N3CCNCC3)cccc21 [CBK200015C],127.483

# 4 entries picked at random from the list so far, as already listed:
row,SMILES,% of control remaining [%]
3,CC(C)C(=O)N1CCC(c2[nH]ncc2-c2ccncc2)CC1 [CBK284237],133.397
20,Cc1nn(C)c(Cl)c1CN(CCC#N)Cc1ccco1 [CBK304825],127.043
8,CC(C)NC(=O)CSc1nc2ccccc2[nH]1 [CBK072235],105.64
23,CC(=O)Nc1cccc(CN(CCCCO)C2CC2)c1 [CBK304806],106.171

# Rewritten with tabs: part of the list above.
row	SMILES	% of control remaining [%]
25	COc1ccc([C@@]23CC[C@@H](NC(=O)Nc4ccc5ccccc5c4)C[C@@H]2N(C)CC3)cc1OC [CBK034181T]	104.806
26	N#Cc1ccccc1Cn1ccc2c(N3CCNCC3)cccc21 [CBK200015C]	127.483
